Data published in PMC6443775.
These are yes or no findings as the source states them, for the method shown. Binding seen in cells or lysates may run through a third protein. Some results given as binding are weak or reduced against the parent protein; the word gives no strength.

Amino acid sequences for entries named in this document (tags omitted). Residues count along the entry.
UniProt P19793, residues 86-462: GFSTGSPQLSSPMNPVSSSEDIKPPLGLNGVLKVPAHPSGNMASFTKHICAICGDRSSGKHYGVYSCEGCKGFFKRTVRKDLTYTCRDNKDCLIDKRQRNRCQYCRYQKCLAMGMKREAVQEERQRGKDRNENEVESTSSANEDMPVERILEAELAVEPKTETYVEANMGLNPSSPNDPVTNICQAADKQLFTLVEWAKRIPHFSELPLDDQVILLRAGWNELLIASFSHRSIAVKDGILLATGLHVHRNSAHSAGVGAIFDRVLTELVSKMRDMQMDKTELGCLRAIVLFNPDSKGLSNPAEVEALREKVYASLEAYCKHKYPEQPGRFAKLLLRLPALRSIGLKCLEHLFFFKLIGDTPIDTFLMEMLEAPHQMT

Target: T1, TRAF6, endogenous in mouse macrophages (mouse (endogenous in BMDMs and RAW264.7)) (UniProt P70196)
T1 sequence: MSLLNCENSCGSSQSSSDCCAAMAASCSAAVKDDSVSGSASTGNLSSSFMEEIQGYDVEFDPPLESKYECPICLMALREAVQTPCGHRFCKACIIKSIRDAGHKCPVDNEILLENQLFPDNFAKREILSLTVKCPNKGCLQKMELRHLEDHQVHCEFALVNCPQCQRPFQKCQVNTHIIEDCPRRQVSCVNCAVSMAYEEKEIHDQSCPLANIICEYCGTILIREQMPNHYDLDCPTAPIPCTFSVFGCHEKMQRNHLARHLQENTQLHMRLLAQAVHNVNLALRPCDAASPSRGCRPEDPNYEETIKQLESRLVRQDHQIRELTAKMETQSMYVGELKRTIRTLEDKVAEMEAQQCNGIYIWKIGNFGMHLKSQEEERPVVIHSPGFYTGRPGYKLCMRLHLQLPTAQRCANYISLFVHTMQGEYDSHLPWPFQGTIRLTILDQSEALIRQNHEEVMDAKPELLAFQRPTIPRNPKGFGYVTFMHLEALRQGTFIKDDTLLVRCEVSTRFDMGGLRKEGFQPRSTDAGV
Assay: co-IP; lysates of WT- and tRXRα-BMDMs, with or without LPS (50 ng/ml, 15 min); immunoprecipitation with anti-TRAF6 antibody, immunoblotting

truncated retinoid X receptor α (tRXRα), transgene of Tg-tRXRα mice (from UniProt P19793 86-462) (domain or fragment)
binding: binds
